The text below walks through data of PubChem BioAssay AID624417 (National Center for Advancing Translational Sciences (NCATS), 2012).

Sequences of proteins named here, by UniProt entry; tags and fusion partners are left off.
UniProt P43220, whole entry, looked up: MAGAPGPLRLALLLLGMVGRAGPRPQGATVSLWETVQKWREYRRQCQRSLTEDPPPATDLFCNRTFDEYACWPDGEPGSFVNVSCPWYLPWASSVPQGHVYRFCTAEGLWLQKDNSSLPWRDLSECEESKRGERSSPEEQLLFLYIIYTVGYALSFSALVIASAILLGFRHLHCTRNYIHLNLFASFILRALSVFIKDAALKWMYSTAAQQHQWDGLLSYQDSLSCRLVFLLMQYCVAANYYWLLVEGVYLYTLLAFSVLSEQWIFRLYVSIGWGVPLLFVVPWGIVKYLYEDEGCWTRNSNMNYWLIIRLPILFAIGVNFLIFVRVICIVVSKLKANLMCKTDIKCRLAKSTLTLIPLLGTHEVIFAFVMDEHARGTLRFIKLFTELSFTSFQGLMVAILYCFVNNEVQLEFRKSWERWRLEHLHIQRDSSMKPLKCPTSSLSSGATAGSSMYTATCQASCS

The structures appear in SMILES notation. The hits were mostly taken out for another list; the other results follow. Inconclusive results are not listed. Activity calls are given as the source filed them. Calls come from the whole dose curve; as a rule, active = well fitted inhibition curve with a large enough effect; inconclusive = small, poorly fitted or top-dose-only effect; inactive = no such curve, though single readings can be large or run the other way.
% is set by controls: 0 for no effect and ±100 for the full control effect.

The target of this test is Glucagon-like peptide 1 receptor (Homo sapiens) (UniProt P43220). Put plainly: qHTS of GLP-1 Receptor Inverse Agonists (Inhibition Mode). Note: nearly all actives have a fitted effect of over 55% in size. As to conditions: HEK293 GLP-1R CRE-luciferase, luminescence, 24 h, GLP-1R form is constitutively active; at 38.3 µM (top of the series). From the text:
The overall goal of this project was to develop a novel assay for discovering small molecule ligands for class B1 G protein-coupled receptors (GPCRs). Very few agonists (or inverse agonists in inhibition mode) with generally weak activity for this entire group of physiologically important receptors are known to date. To establish proof-of-principle that this critical bottleneck can be overcome with a suitable screening approach, our studies focused on the class B1 receptor for glucagon-like peptide-1 (GLP-1R), a potential therapeutic target for diabetes and neurodegenerative disease. The assay was developed using a cell-based functional readout. Toward this goal, stably transfected HEK293 cell clones were established that co-express (i) a cAMP-responsive luciferase reporter gene, and (ii) constitutively active GLP-1R that upon ligand interaction inhibit (inverse agonists) the luciferase activity. […]
Six ul of cell suspension (200 cells/uL in DMEM + 10% Nu serum + 1% pen-strep) is dispensed in a white solid 1536-well plate. […] A luminescence read is obtained on the PerkinElmer Viewlux after 12 min incubation at room temperature.
On the technique in general: qHTS replaces the single test concentration by a dilution series.
Regarding `O=c1ccc2ccc(OCc3ccccc3)cc2o1`, the activity change, negative = inhibition was inactive: 27.6%.
Under `O=C1CC(c2ccccc2)Oc2cc(O)ccc21` (configuration not stated) stands inactive: 43%.
